This is an account of results in PMC12873737.

By UniProt entry, the sequences of proteins in these tests, tags left out.
UniProt Q9R1A8: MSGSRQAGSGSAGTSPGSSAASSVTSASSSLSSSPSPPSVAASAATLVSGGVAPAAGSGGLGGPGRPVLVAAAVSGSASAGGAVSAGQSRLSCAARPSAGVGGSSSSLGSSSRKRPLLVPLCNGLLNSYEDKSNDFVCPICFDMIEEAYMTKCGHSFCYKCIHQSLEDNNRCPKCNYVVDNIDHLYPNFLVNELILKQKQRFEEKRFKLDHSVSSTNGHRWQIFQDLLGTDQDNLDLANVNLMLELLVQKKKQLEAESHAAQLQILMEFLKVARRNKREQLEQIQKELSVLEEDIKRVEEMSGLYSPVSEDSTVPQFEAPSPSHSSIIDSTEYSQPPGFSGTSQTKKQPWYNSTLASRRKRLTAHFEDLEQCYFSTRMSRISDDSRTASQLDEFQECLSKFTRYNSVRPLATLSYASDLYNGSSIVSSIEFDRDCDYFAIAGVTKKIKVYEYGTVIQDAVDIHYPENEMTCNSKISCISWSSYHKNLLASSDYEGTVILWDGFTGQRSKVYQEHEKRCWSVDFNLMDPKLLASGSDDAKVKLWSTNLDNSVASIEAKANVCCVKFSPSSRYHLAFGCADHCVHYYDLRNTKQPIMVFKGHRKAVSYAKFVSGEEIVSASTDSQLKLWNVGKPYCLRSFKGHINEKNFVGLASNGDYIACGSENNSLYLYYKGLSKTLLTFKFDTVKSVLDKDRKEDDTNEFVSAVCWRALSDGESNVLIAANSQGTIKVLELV

In assay [1] the target is T1, HA-Rhbdf2 (rhomboid 5 homolog 2), expressed in AML12 cells (UniProt Q80WQ6).
T1 sequence: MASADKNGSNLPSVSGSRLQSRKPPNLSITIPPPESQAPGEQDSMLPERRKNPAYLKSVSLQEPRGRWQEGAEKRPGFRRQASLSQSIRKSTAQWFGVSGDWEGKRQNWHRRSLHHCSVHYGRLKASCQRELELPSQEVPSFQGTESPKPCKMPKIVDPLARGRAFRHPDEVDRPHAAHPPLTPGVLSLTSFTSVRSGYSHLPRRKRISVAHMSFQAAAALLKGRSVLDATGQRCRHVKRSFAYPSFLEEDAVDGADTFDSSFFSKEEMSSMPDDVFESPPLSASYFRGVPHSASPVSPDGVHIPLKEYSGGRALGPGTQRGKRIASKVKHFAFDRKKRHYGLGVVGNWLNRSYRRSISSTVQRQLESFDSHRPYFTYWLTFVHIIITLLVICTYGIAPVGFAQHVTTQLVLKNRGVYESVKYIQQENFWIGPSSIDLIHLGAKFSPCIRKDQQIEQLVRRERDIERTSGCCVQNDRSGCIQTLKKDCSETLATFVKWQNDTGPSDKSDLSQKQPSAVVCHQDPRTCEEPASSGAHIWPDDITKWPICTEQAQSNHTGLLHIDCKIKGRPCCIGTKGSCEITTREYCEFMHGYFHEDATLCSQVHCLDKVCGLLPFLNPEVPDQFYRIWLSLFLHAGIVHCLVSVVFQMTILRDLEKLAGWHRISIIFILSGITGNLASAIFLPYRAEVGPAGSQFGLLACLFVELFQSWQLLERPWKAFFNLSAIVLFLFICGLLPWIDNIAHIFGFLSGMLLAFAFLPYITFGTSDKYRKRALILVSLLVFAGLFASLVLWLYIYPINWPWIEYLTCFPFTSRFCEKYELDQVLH
The assay is described as follows: co-IP; AML12 cells co-transfected with HA-Rhbdf2 and Flag-Cop1 for 1 day; lysate incubated with protein A/G agarose beads and the corresponding antibody at 4°C for 12 hours; Western blot. (A western blot detects proteins with antibodies after separation by electrophoresis.)

The target of assay [2] is T2, HA-Rhbdf2 (rhomboid 5 homolog 2), expressed in 293T cells (UniProt Q80WQ6).
T2 sequence: T1 sequence
Put plainly: co-IP; HEK293T cells co-transfected with HA-Rhbdf2 and Flag-Cop1 for 1 day; lysate incubated with protein A/G agarose beads and the corresponding antibody at 4°C for 12 hours; Western blot.

These are yes or no findings as the source states them, for the method shown. In cells and extracts the contact can be indirect. Some entries that bind do so weakly or less than the wild type. Sequences can lack the tags named with a protein.

For “Flag-Cop1 (constitutive photomorphogenic 1), expressed in AML12 cells (from UniProt Q9R1A8 1-733) (enzyme)”, the binding result in assay [1] is “binds”. Turning to “Flag-Cop1 (constitutive photomorphogenic 1), expressed in 293T cells (from UniProt Q9R1A8 1-733) (enzyme)”, the binding entry in assay [2] was “binds”.
